From PubChem BioAssay record AID912 (NCATS, 2007).

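A cell-based FRET test of anthrax lethal toxin entry, tracked through the 460 nm emission signal; the cell line is not named here. Each compound was tested as a concentration series from about 0.0005 to 40 µM. The number is the fitted AC50 of the 460 nm signal alone; lower values mean a more potent effect. A falling signal goes with compounds filed as inhibitors or cytotoxic, a rising one with activators or fluorescent compounds (inferred from the filed classes).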

Values are in nM. Common to all entries: measured here: 460 nm channel. This is a side read-out of the assay, for part of the compounds, not drawn at random. A potency from a partial, single-point or poor curve is only a rough figure. The first word of each remark tells which way the curve ran; it can be opposite to the aim of the assay.

Cc1cccc(S(=O)(=O)C(C#N)c2nc3ccccc3nc2N2CC(C)OC(C)C2)c1 (centres undefined) gave AC50 1995 nM (rising, full curve).
c1ccc(OCCOc2ncnc3ccccc23)cc1 gave AC50 15.85 nM (falling, full curve).
CCOC(=O)C1C(=O)NC(N2CCN(c3ccccc3)CC2)=NC1c1ccco1 (centres undefined) gave AC50 19952 nM (rising, partial curve).
O=C(CC1CCCCC1)OCn1nnc2ccccc2c1=O gave AC50 5012 nM (rising, single point).
O=c1c(-c2cccs2)nc2cncnc2n1Cc1ccccc1 gave AC50 12589 nM (rising, partial curve).
O=C1CCCc2c1nc(-c1ccccc1)n2O gave AC50 1259 nM (rising, partial curve).
CCNc1ncc2nc(-c3cc(F)cc(F)c3)c(=O)n(Cc3cccs3)c2n1 gave AC50 15848 nM (rising, partial curve).
c1cc(CN2CCCCC2)cc(OCCCNc2nc3ccccc3s2)c1 gave AC50 25118 nM (falling, single point).
O=C(Cc1ccc(Cl)c(Cl)c1)N1CCCC[C@H]1CN1CCCC1 gave AC50 31622 nM (falling, single point).
Cc1ccc(-c2noc(C3CCCN(C(=O)c4c(F)cccc4F)C3)n2)cc1 (centres undefined) gave AC50 6310 nM (falling, partial curve, poor fit).
CC[C@@H]1CN2CCc3cc(OC)c(OC)cc3[C@H]2C[C@@H]1C[C@@H]1NCCc2cc(OC)c(OC)cc21 gave AC50 19.95 nM (falling, full curve).
Fc1ccc(N2CCN(C(c3cccs3)c3nnnn3CCc3ccccc3)CC2)cc1 (centres undefined) gave AC50 10000 nM (falling, partial curve).
CC1=C(C(=O)OCC2CCCO2)C(c2ccncc2)C2=C(CCCC2=O)N1 (centres undefined) gave AC50 7943 nM (rising, partial curve).
Cc1ccccc1NC1=NCC(C)S1 (centres undefined) gave AC50 251.2 nM (falling, full curve).
O=C1c2[nH]nc(-c3ccccc3O)c2C(c2ccc(F)cc2)N1Cc1ccco1 (centres undefined) gave AC50 6310 nM (rising, full curve).
CCN1CCN(c2ncc(C(=O)Nc3ccccc3C(=O)OC)c3ccccc23)CC1 gave AC50 10000 nM (falling, partial curve).
C(#CCN1CCCC1)CN1CCCC1 gave AC50 3981 nM (falling, partial curve).
O=c1c(-c2ccc(Cl)cc2)nc2cnc(N3CCOCC3)nc2n1-c1ccccc1 gave AC50 1585 nM (rising, full curve).
Fc1ccc(C(OCCN2CCN(CCCc3ccccc3)CC2)c2ccc(F)cc2)cc1 gave AC50 12589 nM (falling, full curve).
COc1ccc(CNc2ncnc3ccc(-c4ccc(N(C)C)cc4)cc23)c(OC)c1 gave AC50 31622 nM (falling, single point).
O=C(CN1C(=O)NC2(CCOc3ccccc32)C1=O)Nc1ccc2c(c1)OCCO2 (centres undefined) gave AC50 3981 nM (falling, partial curve).
C[N+](C)(CCCCCC[N+](C)(C)CCCN1C(=O)c2ccccc2C1=O)CCCN1C(=O)c2ccccc2C1=O gave AC50 31622 nM (falling, single point).
CCOc1ccc(NC(=O)CN2CCN(CC(=O)c3ccc(OCC)cc3)CC2)cc1 gave AC50 25118 nM (rising, single point).
COc1ccc2cc3[n+](cc2c1OC)CCc1cc2c(cc1-3)OCO2 gave AC50 25118 nM (falling, partial curve).
COC(=O)c1c(-c2cccs2)csc1NC(=O)c1cccnc1 gave AC50 31622 nM (falling, single point).
Cc1cc(NC(=O)c2oc3ccccc3c2C)ccc1-n1cnnn1 gave AC50 10000 nM (falling, partial curve).
Cc1ccc(Cl)cc1N1CCN(C(=O)C2CCN(c3nnc(-n4cccc4)s3)CC2)CC1 gave AC50 10000 nM (falling, partial curve).
Cc1nc2cnc(Nc3ccccc3)nc2n(C)c1=O gave AC50 1259 nM (rising, full curve, poor fit).
O=C(CCCn1c(=S)[nH]c2cc3c(cc2c1=O)OCO3)N1CCN(c2ccccc2)CC1 gave AC50 501.2 nM (rising, full curve, poor fit).
CN(CC(=O)N1CCCCC1)S(=O)(=O)c1cccc2cccnc12 gave AC50 3162 nM (rising, single point).

The first 4 entries again:

Cc1cccc(S(=O)(=O)C(C#N)c2nc3ccccc3nc2N2CC(C)OC(C)C2)c1 (centres undefined) read AC50 1995 nM (rising, full curve).
c1ccc(OCCOc2ncnc3ccccc23)cc1 read AC50 15.85 nM (falling, full curve).
CCOC(=O)C1C(=O)NC(N2CCN(c3ccccc3)CC2)=NC1c1ccco1 (centres undefined) read AC50 19952 nM (rising, partial curve).
O=C(CC1CCCCC1)OCn1nnc2ccccc2c1=O read AC50 5012 nM (rising, single point).